# Measurements taken from doi:10.1101/2023.02.07.527456.
# Protein sequences, listed by entry. Tags and fused reporters are not part of them.
# UniProt P47806: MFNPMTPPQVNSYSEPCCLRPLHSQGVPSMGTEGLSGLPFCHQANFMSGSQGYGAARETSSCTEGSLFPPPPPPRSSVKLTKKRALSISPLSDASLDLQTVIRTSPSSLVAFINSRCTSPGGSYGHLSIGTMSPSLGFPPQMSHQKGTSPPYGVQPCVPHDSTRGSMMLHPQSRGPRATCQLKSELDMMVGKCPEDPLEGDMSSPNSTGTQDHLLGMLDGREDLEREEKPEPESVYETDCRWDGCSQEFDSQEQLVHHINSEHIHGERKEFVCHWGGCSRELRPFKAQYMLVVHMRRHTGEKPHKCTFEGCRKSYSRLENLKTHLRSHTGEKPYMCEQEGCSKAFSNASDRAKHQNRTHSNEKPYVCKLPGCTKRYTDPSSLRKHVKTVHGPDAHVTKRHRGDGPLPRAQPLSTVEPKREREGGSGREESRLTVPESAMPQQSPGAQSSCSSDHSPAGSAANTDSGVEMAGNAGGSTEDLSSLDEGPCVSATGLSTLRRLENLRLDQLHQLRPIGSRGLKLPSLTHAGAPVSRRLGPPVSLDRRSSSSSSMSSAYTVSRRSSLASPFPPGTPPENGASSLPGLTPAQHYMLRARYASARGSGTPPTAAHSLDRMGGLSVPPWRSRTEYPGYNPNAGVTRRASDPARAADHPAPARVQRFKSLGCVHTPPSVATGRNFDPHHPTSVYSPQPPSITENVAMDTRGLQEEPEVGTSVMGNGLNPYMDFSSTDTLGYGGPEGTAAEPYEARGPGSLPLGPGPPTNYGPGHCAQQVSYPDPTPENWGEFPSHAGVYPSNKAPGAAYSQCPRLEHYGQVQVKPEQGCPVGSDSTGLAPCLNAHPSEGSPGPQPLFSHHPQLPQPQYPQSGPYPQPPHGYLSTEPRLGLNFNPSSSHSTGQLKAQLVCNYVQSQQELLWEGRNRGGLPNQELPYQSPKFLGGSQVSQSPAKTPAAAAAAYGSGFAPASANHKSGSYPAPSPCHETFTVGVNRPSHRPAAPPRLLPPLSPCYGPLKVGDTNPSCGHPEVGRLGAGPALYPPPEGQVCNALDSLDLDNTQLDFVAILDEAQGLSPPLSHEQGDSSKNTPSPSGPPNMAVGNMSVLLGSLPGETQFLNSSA
# UniProt P13864: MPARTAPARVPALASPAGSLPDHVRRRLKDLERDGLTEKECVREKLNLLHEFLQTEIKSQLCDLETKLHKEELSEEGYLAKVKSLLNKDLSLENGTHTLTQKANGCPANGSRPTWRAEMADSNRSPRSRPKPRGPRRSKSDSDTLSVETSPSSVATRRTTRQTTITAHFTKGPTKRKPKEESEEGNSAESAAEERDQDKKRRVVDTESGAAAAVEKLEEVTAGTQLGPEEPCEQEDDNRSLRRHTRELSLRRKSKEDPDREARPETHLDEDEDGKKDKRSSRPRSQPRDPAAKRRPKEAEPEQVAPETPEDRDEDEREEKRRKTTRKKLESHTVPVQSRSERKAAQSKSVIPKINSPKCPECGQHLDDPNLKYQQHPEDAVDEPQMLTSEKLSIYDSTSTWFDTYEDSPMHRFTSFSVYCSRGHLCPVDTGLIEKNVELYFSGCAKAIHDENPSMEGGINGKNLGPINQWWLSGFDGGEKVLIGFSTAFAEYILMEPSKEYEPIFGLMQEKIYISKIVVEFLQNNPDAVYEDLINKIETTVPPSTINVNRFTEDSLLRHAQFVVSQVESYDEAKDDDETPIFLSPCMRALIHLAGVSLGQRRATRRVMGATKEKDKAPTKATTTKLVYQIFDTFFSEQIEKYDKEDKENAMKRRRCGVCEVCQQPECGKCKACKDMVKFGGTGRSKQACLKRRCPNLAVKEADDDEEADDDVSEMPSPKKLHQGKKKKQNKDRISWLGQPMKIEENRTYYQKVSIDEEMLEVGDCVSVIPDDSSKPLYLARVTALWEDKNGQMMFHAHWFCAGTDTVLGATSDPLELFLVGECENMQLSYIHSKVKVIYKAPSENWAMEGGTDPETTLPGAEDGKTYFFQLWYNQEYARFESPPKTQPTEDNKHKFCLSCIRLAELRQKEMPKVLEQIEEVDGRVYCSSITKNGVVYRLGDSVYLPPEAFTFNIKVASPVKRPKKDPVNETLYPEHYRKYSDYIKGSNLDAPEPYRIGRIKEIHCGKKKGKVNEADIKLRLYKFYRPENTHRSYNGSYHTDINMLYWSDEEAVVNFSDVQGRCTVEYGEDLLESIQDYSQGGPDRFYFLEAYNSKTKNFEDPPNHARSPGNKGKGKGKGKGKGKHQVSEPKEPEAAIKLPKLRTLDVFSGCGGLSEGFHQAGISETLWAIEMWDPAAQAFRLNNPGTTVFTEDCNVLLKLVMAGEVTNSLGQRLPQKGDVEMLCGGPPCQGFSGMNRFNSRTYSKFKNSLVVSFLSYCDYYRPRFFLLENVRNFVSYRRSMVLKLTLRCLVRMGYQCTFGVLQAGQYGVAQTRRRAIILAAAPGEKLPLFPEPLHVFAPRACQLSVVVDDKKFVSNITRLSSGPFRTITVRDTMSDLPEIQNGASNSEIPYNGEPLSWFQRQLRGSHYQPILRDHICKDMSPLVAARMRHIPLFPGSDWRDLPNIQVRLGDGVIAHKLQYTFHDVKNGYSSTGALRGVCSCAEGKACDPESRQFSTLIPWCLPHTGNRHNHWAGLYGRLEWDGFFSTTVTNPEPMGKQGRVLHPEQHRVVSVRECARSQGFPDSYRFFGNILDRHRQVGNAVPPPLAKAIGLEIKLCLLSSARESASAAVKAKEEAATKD
# These are yes or no findings as the source states them, for the method shown. Binding seen in cells or lysates may run through a third protein. Some results given as binding are weak or reduced against the parent protein; the word gives no strength.
# Target: Glioma-associated oncogene homolog 1 (mouse (endogenous in murine BMMs or RAW264.7 cells)) (UniProt P47806)
# Assay: co-IP
substance,measurement,value
DNA methyltransferase 1 (from UniProt P13864 1-1620) (enzyme),binding,binds
